Assay results reported in PubChem BioAssay AID504834 (National Center for Advancing Translational Sciences (NCATS), 2011).
The campaign covered roughly 320,000 compounds. About 22,000 (6.9%) were called active. Inconclusive results, whose numbers are uncertain, are shown with a selection of clear calls. The call rests on the fitted dose curve; in most records, active means well fitted inhibition curve with a large enough effect; inconclusive means small, poorly fitted or top-dose-only effect, or another doubt; inactive means no such curve, though single readings can be large or run the other way. Potencies beside an inconclusive call are fits to weak or partial responses and may not hold up.

experiment: Primary qHTS for delayed death inhibitors of the malarial parasite plastid, 96 hour incubation; details: P. falciparum luciferase reporter growth; series mostly up to 28.7 µM; activity change, negative = inhibition: at the top concentration
Method in brief: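 Erythrocytes infected with luciferase-expressing P. falciparum were dispensed at 2% hematocrit and 0.05% parasitemia (final), then incubated with compounds 96 hours at 37 C in 5% CO2. Luminescence after detection reagent addition reported growth.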
On the % scale 0 is the no-effect control and ±100 the full control effect; potency means the concentration at half of the fitted maximal effect.

| SMILES | Potency | activity change, negative = inhibition |
| --- | --- | --- |
| O=C(CCc1nnc2n(Cc3ccc(F)cc3)c(=O)c3ccccc3n12)NCCCN1CCOCC1 | inconclusive: 18.5 µM [inhibitor, single point] |  |
| N#Cc1c(NC(=O)c2cc([N+](=O)[O-])ccc2N2CCOCC2)sc2c1CCCC2 | inconclusive: 18.5 µM [inhibitor, single point] |  |
| CC(=NCc1ccco1)c1c(O)n(-c2ccc(Cl)cc2)c(=O)[nH]c1=O | inconclusive: 18.5 µM [inhibitor, partial curve, poor fit] |  |
| CCOC(=O)C1CSC(CC(=O)Nc2ccc(OC(F)(F)F)cc2)C(=O)N1 (centres undefined) | inconclusive: 1.04 µM [inhibitor, partial curve] |  |
| O=C(Cc1ccccc1)Nc1nc(-c2cccc([N+](=O)[O-])c2)cs1 | inconclusive: 18.5 µM [inhibitor, single point] |  |
| Cc1ccc(C23CC4CC(CC(C(N)=O)(C4)C2)C3)cc1 | inconclusive: 18.5 µM [inhibitor, single point] |  |
| COCC1CCN(C(=O)C2CCC(=O)N(C3CCCC3)C2)CC1 (centres undefined) |  | inactive: -5% |
| CC(C)(C)C(=O)Cn1ncc(Br)c(Br)c1=O |  | inactive: 7.41% |
| Cc1ccc(OCc2nnc(N)s2)cc1 | inconclusive: 18.5 µM [inhibitor, single point] |  |
| COC(=O)[C@@H](NC(=O)O[C@H]1C(=O)c2ccc(OC)cc2O[C@@H]1c1ccc2c(c1)OCO2)C(C)C |  | inactive: 29.5% |
| CC(C)CCN1CCN(Cc2ccc3nsnc3c2)CC1CCO (centres undefined) | inconclusive: 13.1 µM [inhibitor, single point] |  |
| O=C(NNc1ccccc1[N+](=O)[O-])Nc1ccc(Cl)c(Cl)c1 | inconclusive: 11.7 µM [inhibitor, single point] |  |
| CCCNC(=O)CS(=O)(=O)Cc1nc(-c2ccccc2C)oc1C | inconclusive: 20.8 µM [inhibitor, partial curve, poor fit] |  |
| CC1(C)O[C@@H]2C[C@H]3[C@@H]4C[C@H](F)C5=CC(=O)CC[C@]5(C)[C@H]4[C@@H](O)C[C@]3(C)[C@]2(C(=O)CO)O1 | inconclusive: 13.1 µM [inhibitor, partial curve, poor fit] |  |
| O=C(NC1CCCCC1)N1CCCC(c2nc3ccccc3[nH]2)C1 (centres undefined) | active: 1.47 µM |  |
| COCCCNC(=O)CC(NS(=O)(=O)c1ccc(Cl)cc1)c1ccco1 (centres undefined) | inconclusive: 2.33 µM [inhibitor, partial curve, poor fit] |  |
| Cn1nnc(NC(=O)c2ccccc2)n1 | active: 13.1 µM |  |
| Cc1oc(-c2ccccc2)nc1CS(=O)CC(=O)O (centres undefined) | inconclusive: 9.28 µM [inhibitor, single point] |  |
| COC(=O)c1sccc1N/N=C/c1cccc(Oc2ccccc2)c1 |  | inactive: 17.6% |
| COCCC(=O)N1CCCC(CCC(=O)NCc2ccc(F)c(F)c2)C1 (centres undefined) |  | inactive: -15% |
| CCOc1ccc(CN2CCN(CC3=Cc4cccc(OC)c4OC3)CC2CCO)cc1 (centres undefined) | inconclusive: 11.7 µM [inhibitor, partial curve] |  |
| Cc1nc2cccnc2nc1C |  | inactive: 36.2% |
| COc1ccc(NS(=O)(=O)c2ccc(O)c(NC(=O)c3cc4c(C)nn(-c5ccc(F)cc5)c4s3)c2)cc1 | inconclusive: 18.5 µM [inhibitor, single point] |  |

Reformatted: results already given.
SMILES | Potency | activity change, negative = inhibition
O=C(CCc1nnc2n(Cc3ccc(F)cc3)c(=O)c3ccccc3n12)NCCCN1CCOCC1 | inconclusive: 18.5 µM [inhibitor, single point] | 
CC(=NCc1ccco1)c1c(O)n(-c2ccc(Cl)cc2)c(=O)[nH]c1=O | inconclusive: 18.5 µM [inhibitor, partial curve, poor fit] | 
O=C(Cc1ccccc1)Nc1nc(-c2cccc([N+](=O)[O-])c2)cs1 | inconclusive: 18.5 µM [inhibitor, single point] | 
Cc1ccc(C23CC4CC(CC(C(N)=O)(C4)C2)C3)cc1 | inconclusive: 18.5 µM [inhibitor, single point] | 
COCC1CCN(C(=O)C2CCC(=O)N(C3CCCC3)C2)CC1 (centres undefined) |  | inactive: -5%
CC(C)(C)C(=O)Cn1ncc(Br)c(Br)c1=O |  | inactive: 7.41%
Cc1ccc(OCc2nnc(N)s2)cc1 | inconclusive: 18.5 µM [inhibitor, single point] | 
COC(=O)[C@@H](NC(=O)O[C@H]1C(=O)c2ccc(OC)cc2O[C@@H]1c1ccc2c(c1)OCO2)C(C)C |  | inactive: 29.5%
CC(C)CCN1CCN(Cc2ccc3nsnc3c2)CC1CCO (centres undefined) | inconclusive: 13.1 µM [inhibitor, single point] | 
O=C(NNc1ccccc1[N+](=O)[O-])Nc1ccc(Cl)c(Cl)c1 | inconclusive: 11.7 µM [inhibitor, single point] | 
CCCNC(=O)CS(=O)(=O)Cc1nc(-c2ccccc2C)oc1C | inconclusive: 20.8 µM [inhibitor, partial curve, poor fit] | 
O=C(NC1CCCCC1)N1CCCC(c2nc3ccccc3[nH]2)C1 (centres undefined) | active: 1.47 µM | 
Cc1oc(-c2ccccc2)nc1CS(=O)CC(=O)O (centres undefined) | inconclusive: 9.28 µM [inhibitor, single point] | 
Cc1nc2cccnc2nc1C |  | inactive: 36.2%

The listing continues.

| SMILES | Potency | activity change, negative = inhibition |
| --- | --- | --- |
| CCOC(=O)C1(CC2CCCCO2)CCN(Cc2nccn2-c2cccc(C)c2)CC1 (centres undefined) |  | inactive: 0% |
| CC(C)n1nnnc1-c1cc(Cl)cc(Cl)c1 | inconclusive: 0.233 µM [inhibitor, partial curve, poor fit] |  |
| CN(C)C(=O)/C(=C/c1cn(-c2ccccc2)nc1-c1cccc([N+](=O)[O-])c1)NC(=O)c1ccccc1 |  | inactive: 28% |
| CN1/C(=C\C=C2C(=O)NC(=O)NC2=O)C(C)(C)c2ccccc21 | inconclusive: 18.5 µM [inhibitor, single point] |  |
| COc1ccccc1C(=O)Nc1ccnn1C1CCN(C(=O)c2cnsn2)CC1 | inconclusive: 3.7 µM [inhibitor, partial curve] |  |
| CCOc1ccccc1NC(=O)C(OC(=O)c1cc(C)oc1C)c1ccccc1 (centres undefined) | inconclusive: 14.7 µM [inhibitor, partial curve, poor fit] |  |
| O=C(NCc1nc(-c2ccc(Cl)cc2)no1)c1ccco1 | inconclusive: 1.85 µM [inhibitor, full curve] |  |
| O=C(CSc1ccc(-c2cccs2)nn1)NCCc1ccccc1 | active: 2.94 µM |  |
| CCCc1ccc(OCc2ccc(C(=O)N/N=C/c3cccnc3)o2)cc1 |  | inactive: 32.8% |
| CN(C)CCCNC(NC(=O)/C=C/c1ccccc1)C(Cl)(Cl)Cl (centres undefined) | inconclusive: 9.28 µM [inhibitor, partial curve, poor fit] |  |
| CCN(c1ccccc1)S(=O)(=O)c1cc(C(=O)Nc2ccc(Br)cc2)ccc1F | inconclusive: 11.7 µM [inhibitor, single point] |  |
| O=C(Cc1cccs1)N/N=C/c1ccccn1 |  | inactive: 9.64% |
| Cc1ccc(C2(C)NC(=O)N(CC(=O)N(Cc3ccccc3)C(C)(C)C)C2=O)cc1 (centres undefined) | inconclusive: 10.4 µM [inhibitor, partial curve] |  |
| N/C(=N\OC(=O)c1cccc(F)c1)c1ccccn1 | inconclusive: 13.1 µM [inhibitor, single point] |  |
| CC(C)COc1ncnc2c1sc1nc3c(cc12)COC(C)(C)C3 |  | inactive: 185% |
| CC(OC(=O)/C=C/c1ccccc1Cl)C(=O)NC1CCCCC1C (centres undefined) |  | inactive: 93.6% |
| Cc1ccccc1C(=O)Nc1nnc(-c2ccco2)o1 | inconclusive: 18.5 µM [inhibitor, single point] |  |
| COc1ccc(CNC(=O)Cn2ccc3cc(S(=O)(=O)N4CCCC4)ccc32)cc1OC | inconclusive: 5.22 µM [inhibitor, partial curve] |  |
| CC(C)N(Cc1nc(-c2ccccc2)no1)C(=O)C1CCCCC1 | inconclusive: 18.5 µM [inhibitor, single point] |  |
| CSc1ccc(NS(=O)(=O)c2ccc(-n3cnnn3)cc2)cc1 | inconclusive: 18.5 µM [inhibitor, single point] |  |
| COc1cc(NC(=O)C2CC2)c(OC)cc1NC(=O)c1ccco1 | inconclusive: 11.7 µM [inhibitor, partial curve, poor fit] |  |
| COc1cccc(C(=O)NC2CCN(CC(=O)NCc3ccccc3OC)CC2)c1 | inconclusive: 10.4 µM [inhibitor, single point] |  |
| O=C(Nc1nc(-c2ccccc2)cs1)c1ccc(=O)[nH]c1 |  | inactive: 60.8% |

| SMILES | Potency | activity change, negative = inhibition |
| --- | --- | --- |
| COc1ccccc1C(CNC(=O)C1CC(=O)N(Cc2ccccc2)C1)N1CCCC1 (centres undefined) | inconclusive: 18.5 µM [inhibitor, single point] |  |
| COCCn1c(SC(C)C(=O)NCC2CCCO2)nc2scc(-c3ccc(F)cc3)c2c1=O (centres undefined) | inconclusive: 6.57 µM [inhibitor, partial curve] |  |
| CCOc1ccc(NC(=O)CC2C(=O)N(c3ccc(OC)c(Cl)c3)C(=S)N2C2CC2)cc1 (centres undefined) | inconclusive: 11.7 µM [inhibitor, single point] |  |
| CC(C)(C)C(=O)COC(=O)c1cc(S(=O)(=O)N2CCCCC2)ccc1N1CCOCC1 |  | inactive: 19.3% |
| CC(C)(C)C(=O)NC1CC2CCCC(C1)N2C(=O)Nc1ccc(Cl)cc1 (centres undefined) |  | inactive: -13.9% |
| CCN1/C(=C/c2cc[n+](CCCS(=O)(=O)[O-])c3ccccc23)Sc2ccccc21 |  | inactive: 71.5% |
| COC(=O)C1=C(c2cccc(C#N)c2)C[C@@H]2CC[C@H]1N2C(=O)N1CCc2cc(OC)c(OC)cc2C1 | inconclusive: 8.28 µM [inhibitor, partial curve, poor fit] |  |
| COc1ccc(C2C(C(C)=O)=C(O)C(=O)N2c2cccnc2)cc1OC (centres undefined) |  | inactive: 39.4% |
| [O-]/C(=C(\C(=S)Nc1ccc(SC(F)F)cc1)[n+]1ccccc1)c1ccc(Cl)cc1Cl | inconclusive: 13.1 µM [inhibitor, partial curve] |  |
| COc1ccc(-n2c(SCC(=O)NCC3CCCO3)nc3ccccc32)cc1 (centres undefined) | inconclusive: 9.28 µM [inhibitor, partial curve, poor fit] |  |
| Cc1cccc(-c2cc(C(=O)Nc3ccncc3)c3ccccc3n2)c1 | active: 2.33 µM |  |
| CCN(CC)c1ccc2nc3ccc(N)cc3[n+](-c3ccccc3)c2c1 | inconclusive: 0.0738 µM [inhibitor, full curve] |  |
| FC(F)(F)c1cccc(N2CCN(C(=S)NC3CCCC3)CC2)c1 | active: 13.1 µM |  |
| Cc1cc(C(=O)CSc2cccc[n+]2[O-])c(C)n1-c1ccc(Br)cc1 | active: 6.57 µM |  |
| COc1ccc(NC(=O)C(=O)NCCN2CCN(C(=O)c3ccco3)CC2)cc1 | active: 0.928 µM |  |
| CN(C(=O)CCN1C(=O)c2ccccc2C1=O)c1ccccc1 |  | inactive: 13.9% |
| CC1CCN(C(=O)CSc2nc3c(c(=O)n2C)SCC3)CC1 | inconclusive: 4.15 µM [inhibitor, partial curve, poor fit] |  |
| Cc1ccc(S(=O)(=O)NC(=O)COc2ccccc2C)c(C)c1 |  | inactive: -23.2% |
| COc1cc(NC(=O)c2ccnn2C)c(OC)cc1Cl |  | inactive: 24.9% |
| COc1ccc(CNC(=S)Nc2ccc3nc(N4CCOCC4)cc(C)c3c2)cc1 | inconclusive: 10.4 µM [inhibitor, single point] |  |
| Cc1cccc(-c2nnc(SCC(=O)O)n2Cc2ccccc2)c1 | inconclusive: 18.5 µM [inhibitor, single point] |  |
| COc1ccccc1COC(=O)c1cccc(S(=O)(=O)N2CCCC2)c1 | inconclusive: 18.5 µM [inhibitor, single point] |  |
| Cc1cc(C(F)F)n2nc(C(=O)Nc3cccc(C(F)(F)F)c3)nc2n1 | inconclusive: 18.5 µM [inhibitor, single point] |  |
